# In publication PMC7819943, “Rice protein-binding microarrays: a tool to detect cis-acting elements near promoter regions in rice”:
# The other results are listed elsewhere or left out.
# Target: T1, OsSMF1 (Oryza sativa, UniProt Q6ZLB0 1-436)
# T1 sequence: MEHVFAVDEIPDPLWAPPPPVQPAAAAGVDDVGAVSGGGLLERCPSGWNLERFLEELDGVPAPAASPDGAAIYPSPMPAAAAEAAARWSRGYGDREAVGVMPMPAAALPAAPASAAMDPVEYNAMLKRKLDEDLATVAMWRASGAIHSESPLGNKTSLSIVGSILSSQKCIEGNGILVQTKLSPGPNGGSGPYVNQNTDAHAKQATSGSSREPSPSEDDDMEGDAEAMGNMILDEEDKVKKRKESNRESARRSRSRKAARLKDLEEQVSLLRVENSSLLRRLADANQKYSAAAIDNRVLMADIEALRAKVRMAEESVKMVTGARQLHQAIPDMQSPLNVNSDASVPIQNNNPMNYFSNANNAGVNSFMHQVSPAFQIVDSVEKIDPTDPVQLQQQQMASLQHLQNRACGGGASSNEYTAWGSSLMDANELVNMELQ
# Test: protein-binding microarray (RPBM); PBS, 2% BSA, 51.3 ng/ul salmon testes DNA, 50 uM zinc acetate, 200 nM TF, 25 C, 1 h; high values mean tight binding
# Conditions: protein: recombinant; tags: N-terminal polyhistidine and DsRed monomer fusion (pET32a); chain copies: 2; label: CyDye5-dUTP incorporated in the synthesized complementary strand; 3' TTTTT single-stranded linker to array surface; dsDNA, one strand shown
# In short: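 An Axon 4000B scanner gave the binding signal as per-feature fluorescence intensity in arbitrary units. This followed washing of a custom Agilent array that had been incubated for 1 h at 25 °C with 200 nM protein in PBS, 2% BSA, salmon testes DNA and 50 µM zinc acetate. The proteins were transcription factors fused at the N-terminus to polyhistidine and DsRed, expressed in E. coli BL21-CodonPlus and purified on Ni–NTA.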
row,Sequence,binding signal
1,TATTAGGATTTTGCTGAGATCTGGTGAAGCCACGTCACTCCGGAGTCACCTAGTGCAG,31500 fluorescence intensity (a.u.)
2,TCTTTGGGAAGGAGTGGCCGCCACCCTACCTCGGGCCCGACGGAGTCACCTAGTGCAG,3260 fluorescence intensity (a.u.)
3,TAAATGCTTTTAATTTCACTAGTCACTGACATGAGTATTTCGGAGTCACCTAGTGCAG,3280 fluorescence intensity (a.u.)
4,ATAGAGATCACAGTCACACACATATGGCCTGTGCATTTACCGGAGTCACCTAGTGCAG,3720 fluorescence intensity (a.u.)
5,GCGACCAGCCTCTCGTGTCGTGGTACGTGCTTCTTGTCCCCGGAGTCACCTAGTGCAG,3300 fluorescence intensity (a.u.)
6,ATCTCCTCGCCGGCTCCGCATCCATCGCCTCGAGTCAGCGCGGAGTCACCTAGTGCAG,5080 fluorescence intensity (a.u.)
7,ACGATAAGGTCGTCCACGTCAACTCTCACGCCACGTGGCCCGGAGTCACCTAGTGCAG,24500 fluorescence intensity (a.u.)
8,CTCTGGTTTGATATCAATTAATCTGTGTCTATGTGTCGCACGGAGTCACCTAGTGCAG,3540 fluorescence intensity (a.u.)
9,AGAACCCTACATCTCATCTTCCACCACAGCAATCTCTCAACGGAGTCACCTAGTGCAG,3470 fluorescence intensity (a.u.)
10,CTAGCTAGTGGTGGTGGTGGCCAGTGGGAGATCGAAGTGGCGGAGTCACCTAGTGCAG,3280 fluorescence intensity (a.u.)
11,AAGATAAAGCAGTGAGTCACTAAAATATAAGCCCTCCCTTCGGAGTCACCTAGTGCAG,6380 fluorescence intensity (a.u.)
12,AGACACTGATGAGAAGTTGCTTAGAAGAGCTAAAGAACTTCGGAGTCACCTAGTGCAG,29000 fluorescence intensity (a.u.)
13,GACTAAGAAACAATGCAGCAGCTGATTCATACCTTCCTTCCGGAGTCACCTAGTGCAG,4720 fluorescence intensity (a.u.)
14,AATCACCATCATCGCTGTTTGGGAGGGTCTGCCTGGCTTACGGAGTCACCTAGTGCAG,3490 fluorescence intensity (a.u.)
15,AGCTATACATTGTACGTGTAATTTAACAGCATGCCTGCAGCGGAGTCACCTAGTGCAG,3240 fluorescence intensity (a.u.)
16,ATTTATAGAAATGCCATGTGGCGGCTTAGTAACGTTTGTACGGAGTCACCTAGTGCAG,9840 fluorescence intensity (a.u.)
17,AAGAAGCATTTCAAGTACCCACATTATTTACTGGCGGAGCCGGAGTCACCTAGTGCAG,3570 fluorescence intensity (a.u.)
18,ATTAATGACCTAATCTCCAACTAAACTCCCTATCAATTTGCGGAGTCACCTAGTGCAG,3190 fluorescence intensity (a.u.)
19,GTCTTAGTTAGTTTAATCCCATTTACAAATCTTACGTGGTCGGAGTCACCTAGTGCAG,5320 fluorescence intensity (a.u.)
20,TCCCTGCTCATCGTCTGATCGCCACGCAAGCTGCCACGTCCGGAGTCACCTAGTGCAG,19700 fluorescence intensity (a.u.)
21,CGAAAATGATCTGACACTTATTCGAAAGCAACGTCACAAGCGGAGTCACCTAGTGCAG,4300 fluorescence intensity (a.u.)

row,Sequence,binding signal
1,GAAGAGGAGGGAAAGAGAGTGGTGCTGGCGTGGCACCATGCGGAGTCACCTAGTGCAG,14900 fluorescence intensity (a.u.)
2,CCCTGCTGCAGGAGCACTTGTTGGCTTGTTGCCCGCGGCTCGGAGTCACCTAGTGCAG,3240 fluorescence intensity (a.u.)
3,CTGGATCTCTGACTCCTGACATGAGGACAATACAAGTACTCGGAGTCACCTAGTGCAG,3370 fluorescence intensity (a.u.)
4,GATCCGGAGGATTAAACAAGTGGTGATTATGTCACGCCATCGGAGTCACCTAGTGCAG,3940 fluorescence intensity (a.u.)
5,TCCAGAGCCGTGACGCCGCGGCGCGGCACGGTGGCTGCTGCGGAGTCACCTAGTGCAG,3210 fluorescence intensity (a.u.)
6,AATTCCTCTGCGGCCGCCACGTGCACGCGCCGCCGTTGCCCGGAGTCACCTAGTGCAG,11100 fluorescence intensity (a.u.)
7,CTGGAGTAGCTCCCTGGGACGTGACGTGGCTTGGGTTGATCGGAGTCACCTAGTGCAG,13700 fluorescence intensity (a.u.)
8,TCTATATGCAGATCACAAGATTATGACTATGCTAGCACTACGGAGTCACCTAGTGCAG,3850 fluorescence intensity (a.u.)
9,GGAATGTCCAAAACGTGACTGGCTTCGCTGGAAGATAACCCGGAGTCACCTAGTGCAG,3310 fluorescence intensity (a.u.)
10,TATTGCCATCCGTTTCACCTAGCTGCCTCCCAACCAAATGCGGAGTCACCTAGTGCAG,3280 fluorescence intensity (a.u.)
11,GACGCCGCCATCGCCGCGTCACGCCACGCCACGCCACGCGCGGAGTCACCTAGTGCAG,16100 fluorescence intensity (a.u.)
12,GACGATGGACAGCTGGTCAGCTAGCAGCCAAGCATTGGCTCGGAGTCACCTAGTGCAG,17300 fluorescence intensity (a.u.)
13,GAGCGGTGGCCTCTCGAAGCCCCTCTTCCCGCTTCTGGGACGGAGTCACCTAGTGCAG,16400 fluorescence intensity (a.u.)
14,GAGCAGGAATACAGCCATTTGTCACCCTGACACACTACGACGGAGTCACCTAGTGCAG,3190 fluorescence intensity (a.u.)
15,TGTGGTGGGAGCTGTCTTGTACTGTCACTCCATTCATTGCCGGAGTCACCTAGTGCAG,27300 fluorescence intensity (a.u.)
16,GTCTTTGATCCAGGGATCCCTGTCACATCGAATGTTTGGACGGAGTCACCTAGTGCAG,3680 fluorescence intensity (a.u.)
17,GGATTCCGCAAATCCACGAAGAAAATCAAACTCCGAACCTCGGAGTCACCTAGTGCAG,12500 fluorescence intensity (a.u.)
18,ATGGGAATGGTGGCGATGGAGGTTGGGAACGGCGGTGGCGCGGAGTCACCTAGTGCAG,3200 fluorescence intensity (a.u.)
19,CGCGCGAGTGCTAGGAAGCTGAGTCACGCCCGCCCTCCTCCGGAGTCACCTAGTGCAG,10700 fluorescence intensity (a.u.)
20,TTACCTTCCAGGCTGACTCAGCTCGGCCTAGTCCGTACATCGGAGTCACCTAGTGCAG,11100 fluorescence intensity (a.u.)
21,CAGATCGGCAGACCAGACCACGTGTACACCCAACACGAGGCGGAGTCACCTAGTGCAG,8390 fluorescence intensity (a.u.)

# An excerpt of these results, tab-delimited.
row	Sequence	binding signal
9	GGAATGTCCAAAACGTGACTGGCTTCGCTGGAAGATAACCCGGAGTCACCTAGTGCAG	3310 fluorescence intensity (a.u.)
10	TATTGCCATCCGTTTCACCTAGCTGCCTCCCAACCAAATGCGGAGTCACCTAGTGCAG	3280 fluorescence intensity (a.u.)
11	GACGCCGCCATCGCCGCGTCACGCCACGCCACGCCACGCGCGGAGTCACCTAGTGCAG	16100 fluorescence intensity (a.u.)
12	GACGATGGACAGCTGGTCAGCTAGCAGCCAAGCATTGGCTCGGAGTCACCTAGTGCAG	17300 fluorescence intensity (a.u.)
13	GAGCGGTGGCCTCTCGAAGCCCCTCTTCCCGCTTCTGGGACGGAGTCACCTAGTGCAG	16400 fluorescence intensity (a.u.)
14	GAGCAGGAATACAGCCATTTGTCACCCTGACACACTACGACGGAGTCACCTAGTGCAG	3190 fluorescence intensity (a.u.)
15	TGTGGTGGGAGCTGTCTTGTACTGTCACTCCATTCATTGCCGGAGTCACCTAGTGCAG	27300 fluorescence intensity (a.u.)
16	GTCTTTGATCCAGGGATCCCTGTCACATCGAATGTTTGGACGGAGTCACCTAGTGCAG	3680 fluorescence intensity (a.u.)
17	GGATTCCGCAAATCCACGAAGAAAATCAAACTCCGAACCTCGGAGTCACCTAGTGCAG	12500 fluorescence intensity (a.u.)
18	ATGGGAATGGTGGCGATGGAGGTTGGGAACGGCGGTGGCGCGGAGTCACCTAGTGCAG	3200 fluorescence intensity (a.u.)
